Experimental data taken from US8802634B2, “CD40-L Inhibitory Peptides” (Phylogica Limited, priority 2008, dated 2014).

The chains behind the UniProt entries cited, without tags or fusion partners. Residues count along the entry.
UniProt P29965, 113-261 limits assumed: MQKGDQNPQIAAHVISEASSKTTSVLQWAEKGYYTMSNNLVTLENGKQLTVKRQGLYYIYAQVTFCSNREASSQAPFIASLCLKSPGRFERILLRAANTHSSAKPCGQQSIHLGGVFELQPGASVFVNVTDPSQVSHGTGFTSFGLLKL

Biological target: CD40L/CD40-Fc (Homo sapiens, UniProt P29965)
Experiment: Chemiluminescent proximity assay (Alphascreen) of CD40L-CD40 interaction
Conditions: read-out: EC50(PEGylated) CD40L/CD40-Fc/BAF617; PEGylated chiral (retro-inverted) analog

pEC50: 7.70
Compound: CC[C@@H](C)[C@@H](NC(=O)[C@@H](Cc1c[nH]c2ccccc12)NC(=O)[C@@H](CC(N)=O)NC(=O)[C@@H](Cc1ccccc1)NC(=O)[C@@H](Cc1ccccc1)NC(=O)[C@@H](CO)NC(=O)[C@H](NC(=O)[C@H](N)Cc1ccc(O)cc1)C(C)C)C(=O)N[C@H](CO)C(=O)N[C@H](Cc1ccccc1)C(=O)N[C@@H](C(=O)N[C@H](CC(N)=O)C(=O)N[C@H](CCCCN)C(=O)N[C@@H](C(=O)N[C@H](CO)C(=O)N[C@H](Cc1ccccc1)C(=O)N1CCC[C@@H]1C(=O)N[C@H](Cc1cnc[nH]1)C(=O)O)[C@H](C)CC)C(C)C

pEC50: −log10 of the molar value. Structures were worked out from names or drawings and are uncertain.
